In the supplement of paper PMC6078165:

System: BT20
Experiment: relative JC-1 red fluorescence (viability) vs pre-drug, coculture with fibroblast (fraction); higher = more viable cancer cells
Experimental: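 JC-1 labelled TNBC cells cocultured 1:1 (1,500 cells each) with CellTrace Violet stained primary or stromal fibroblasts in 384-well plates in FluoroBrite medium, treated with one of 42 anticancer drugs at 0.1, 1, 10 or 100 uM. JC-1 red fluorescence (mitochondrial integrity in cancer cells only) was read by plate reader every 8 h for 72 h. Values are normalised to each well's pre-drug value. The stock of one drug was tenfold lower, so its dose labels may be too high.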

CC(C)(C#N)c1cc(Cn2cncn2)cc(C(C)(C)C#N)c1 [Anastrozole]
relative JC-1 red fluorescence
Details | 8 h | 16 h | 24 h | 32 h | 40 h | 48 h | 56 h | 64 h | 72 h
10 µM, coculture fibroblast: C12385 | 0.90435 | 0.794 | 0.763 | 0.704 | 0.648 | 0.612 | 0.585 | 0.551 | 0.528
10 µM, coculture fibroblast: H6013 | 0.928 | 0.8649 | 0.833 | 0.799 | 0.758 | 0.753 | 0.75 | 0.737 | 0.721
10 µM, coculture fibroblast: H6019 | 0.8921 | 0.814 | 0.797 | 0.725 | 0.67 | 0.643 | 0.598 | 0.565 | 0.542
10 µM, coculture fibroblast: H6076 | 0.985 | 0.895 | 0.808 | 0.765 | 0.73 | 0.699 | 0.685 | 0.677 | 0.659
10 µM, coculture fibroblast: H6231 | 0.835 | 0.955 | 0.832 | 0.766 | 0.715 | 0.662 | 0.62 | 0.588 | 0.543
10 µM, coculture fibroblast: HADF | 0.812 | 0.88659 | 0.838 | 0.804 | 0.761 | 0.723 | 0.704 | 0.688 | 0.65
10 µM, coculture fibroblast: HCFa | 0.934 | 0.862 | 0.838 | 0.774 | 0.741 | 0.708 | 0.686 | 0.673 | 0.642
10 µM, coculture fibroblast: HCPF | 0.875 | 0.92 | 0.849 | 0.8042 | 0.7618 | 0.7146 | 0.668 | 0.655 | 0.605
10 µM, coculture fibroblast: HHSteC | 0.9325 | 0.84 | 0.818 | 0.743 | 0.686 | 0.647 | 0.624 | 0.601 | 0.577
10 µM, coculture fibroblast: HMF | 0.923 | 0.9 | 0.799 | 0.744 | 0.701 | 0.656 | 0.611 | 0.576 | 0.54
10 µM, coculture fibroblast: HPFa | 0.954 | 0.86 | 0.853 | 0.762 | 0.723 | 0.674 | 0.639 | 0.608 | 0.555
10 µM, coculture fibroblast: HUF | 0.954 | 0.835 | 0.822 | 0.744 | 0.693 | 0.655 | 0.635 | 0.612 | 0.601
10 µM, coculture fibroblast: Hs5 | 0.912 | 0.92 | 0.848 | 0.797 | 0.7517 | 0.709 | 0.668 | 0.635 | 0.606
10 µM, coculture fibroblast: Hs27A | 0.81157 | 0.856 | 0.88498 | 0.891 | 0.821 | 0.79 | 0.761 | 0.723 | 0.6626
10 µM, coculture fibroblast: Hs343T | 0.968 | 0.876 | 0.764 | 0.714 | 0.667 | 0.616 | 0.575 | 0.556 | 0.515
10 µM, coculture fibroblast: WS1 | 0.8539 | 0.772 | 0.731 | 0.655 | 0.6 | 0.559 | 0.518 | 0.482 | 0.454
100 µM, coculture fibroblast: C12385 | 0.8727 | 0.798 | 0.745 | 0.693 | 0.6449 | 0.6161 | 0.59372 | 0.5633 | 0.54388
100 µM, coculture fibroblast: H6013 | 0.95426 | 0.9239 | 0.898 | 0.87 | 0.825 | 0.81 | 0.803 | 0.783 | 0.763
100 µM, coculture fibroblast: H6019 | 0.8517 | 0.787 | 0.771 | 0.721 | 0.6811 | 0.68 | 0.6543 | 0.6396 | 0.6261
100 µM, coculture fibroblast: H6076 | 0.827 | 0.914 | 0.848 | 0.821 | 0.792 | 0.767 | 0.743 | 0.74 | 0.712
100 µM, coculture fibroblast: H6231 | 0.906 | 0.913 | 0.821 | 0.7501 | 0.7117 | 0.661 | 0.62278 | 0.6125 | 0.5755
100 µM, coculture fibroblast: HADF | 0.849 | 0.915 | 0.8784 | 0.8467 | 0.808 | 0.775 | 0.737 | 0.718 | 0.68
100 µM, coculture fibroblast: HCFa | 0.931 | 0.85092 | 0.8249 | 0.7785 | 0.7333 | 0.7021 | 0.6743 | 0.6544 | 0.61724
100 µM, coculture fibroblast: HCPF | 0.788 | 0.95079 | 0.863 | 0.824 | 0.797 | 0.745 | 0.702 | 0.679 | 0.637
100 µM, coculture fibroblast: HHSteC | 0.9418 | 0.934 | 0.956 | 0.918 | 0.915 | 0.912 | 0.913 | 0.893 | 0.879
100 µM, coculture fibroblast: HMF | 0.9868 | 0.8493 | 0.773 | 0.7119 | 0.68 | 0.646 | 0.615 | 0.5908 | 0.5499
100 µM, coculture fibroblast: HPFa | 0.913 | 0.8166 | 0.8145 | 0.73739 | 0.7066 | 0.668 | 0.637 | 0.597 | 0.54
100 µM, coculture fibroblast: HUF | 0.907 | 0.808 | 0.758 | 0.68 | 0.635 | 0.6 | 0.575 | 0.553 | 0.532
100 µM, coculture fibroblast: Hs5 | 0.9751 | 0.8917 | 0.845 | 0.7976 | 0.7652 | 0.7329 | 0.7055 | 0.683 | 0.654
100 µM, coculture fibroblast: Hs27A | 0.816 | 0.9106 | 0.9759 | 0.988 | 0.951 | 0.938 | 0.924 | 0.897 | 0.8427
100 µM, coculture fibroblast: Hs343T | 0.865 | 0.897 | 0.815 | 0.754 | 0.711 | 0.66 | 0.601 | 0.573 | 0.536
100 µM, coculture fibroblast: WS1 | 0.8605 | 0.8001 | 0.7931 | 0.7351 | 0.6844 | 0.6621 | 0.6324 | 0.601 | 0.585

Values are relative to the signal before dosing, not to a vehicle control; the signal also falls without drug.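 Fibroblast labels denote human fibroblasts, mainly primary ones from uterus (C12385, HUF), lung (H6013), bone (Hs27A), adrenal (HADF) and skin (WS1), plus mammary HMF and breast cancer-associated Hs343T. Cancer cells are basal-like or mesenchymal-like triple-negative breast cancer lines. A hit is a response shift exceeding 3x replicate standard deviation. The tissue of the other fibroblasts is not given here.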
